{"source": "PubChem BioAssay AID540276", "about": "(National Center for Advancing Translational Sciences (NCATS), 2011)", "note": "The campaign covered roughly 300,000 compounds. About 5,400 (1.8%) were called active. Inconclusive means that the source gave no clear call. Such entries were picked first, then a sample of the others. Calls come from the whole dose curve; tested in HEK293 cells. Potencies of inconclusive entries are doubtful fits and often do not repeat. % is set by controls: 0 for no effect and ±100 for the full control effect; potency is the fitted concentration of half-maximal effect."}
{"test": "qHTS for inhibitors of binding or entry into cells for Marburg Virus", "details": "Marburg virus pseudotyped entry inhibition, cell reporter; activity change, negative = inhibition: at 37.8 µM (top of the series) unless noted"}
{"smiles": "Cc1[nH]c(=O)[nH]c(=O)c1NC(=O)c1cccs1", "Potency": "inconclusive: 23.1 µM [activator, partial curve, poor fit]"}
{"smiles": "CC(C)(C)c1ccc(C(=O)Nc2ncn[nH]2)cc1", "Potency": "inconclusive: 35.5 µM [inhibitor, single point]"}
{"smiles": "CCCCCn1c(=N)n(CC(O)COc2ccccc2OC)c2ccccc21", "note": "(configuration not stated)", "Potency": "inconclusive: 13 µM [inhibitor, partial curve, poor fit]"}
{"smiles": "COc1ccc(C)cc1NC(=O)CSc1ccc(Cl)cc1", "Potency": "inconclusive: 35.5 µM [inhibitor, single point]"}
{"smiles": "C=CCOc1ccc(/C(O)=C2\\C(=O)C(=O)N(CCCN3CCOCC3)[C@H]2c2ccc(OC)cc2)cc1", "activity change, negative = inhibition": "inactive: 14.8%"}
{"smiles": "Cc1cc(NCc2ccco2)nc(N2CCC(C(=O)NC3CCCCC3)CC2)n1", "Potency": "inconclusive: 10 µM [inhibitor, partial curve, poor fit]"}
{"smiles": "CSc1ccccc1C(=O)C1CCCN(C(=O)CCc2cccnc2)C1", "note": "(configuration not stated)", "Potency": "inconclusive: 5.62 µM [activator, single point]"}
{"smiles": "CCOC(=O)c1c(-c2ccccc2)oc2ccc(NS(=O)(=O)c3ccc(C(C)C)cc3)cc12", "activity change, negative = inhibition": "inactive: -2.91% [at 46.1 µM]"}
{"smiles": "Cc1cc(C)n2nc(S(=O)(=O)N(C)Cc3ccccc3)nc2n1", "Potency": "inconclusive: 18.3 µM [inhibitor, single point]"}
{"smiles": "CN(C(=O)c1cnccn1)c1c(N)n(Cc2ccccc2)c(=O)[nH]c1=O", "activity change, negative = inhibition": "inactive: 0%"}
{"smiles": "CCOCCCn1c(=N)c(C(=O)NCC2CCCO2)cc2c(=O)n3cc(C)ccc3nc21", "note": "(configuration not stated)", "Potency": "inconclusive: 17.8 µM [activator, partial curve, poor fit]"}
{"smiles": "COC(=O)c1sc2nc(SCc3ccccc3C)n(N)c(=O)c2c1C", "Potency": "inconclusive: 3.55 µM [inhibitor, single point]"}
{"smiles": "O=C(NCC(=O)N1CCN(Cc2ccccc2)CC1)c1ccc(Br)o1", "activity change, negative = inhibition": "inactive: 22.3% [at 46.1 µM]"}
{"smiles": "Cc1ccc(S(=O)(=O)N(C)C)cc1NC(=S)NC1CCCC(C)C1C", "note": "(configuration not stated)", "Potency": "inconclusive: 11.2 µM [inhibitor, single point]"}
{"smiles": "O=C(CNC(=O)C1COc2ccccc2O1)N/N=C\\c1cccc(O)c1", "note": "(configuration not stated)", "Potency": "inconclusive: 5.62 µM [activator, single point]"}
{"smiles": "COc1ccc(CC2(CO)CCN(Cc3cc4ccccc4o3)CC2)cc1", "Potency": "inconclusive: 7.08 µM [inhibitor, full curve, poor fit]"}
{"smiles": "CCC(C)NC(=O)c1ccc(CS(=O)(=O)c2ccc(OC)cc2)o1", "note": "(configuration not stated)", "activity change, negative = inhibition": "inactive: 2.66%"}
{"smiles": "COc1ccccc1NC(=O)Nc1cccc(NC(C)=O)c1", "Potency": "inconclusive: 6.31 µM [activator, single point]"}
{"smiles": "Fc1ccc(NC(=S)NC2CC3CCCC(C2)N3Cc2cccs2)cc1", "note": "(configuration not stated)", "Potency": "inconclusive: 35.5 µM [inhibitor, single point]"}
{"smiles": "Cc1nnc(SCC(=O)Nc2ccc3c(c2)OCO3)[nH]c1=O", "Potency": "inconclusive: 7.08 µM [activator, partial curve, poor fit]"}
{"smiles": "COc1ccc(/C=N/NC(=O)C(N)=O)c(OC)c1OC", "activity change, negative = inhibition": "inactive: 0.156%"}
{"smiles": "CCOc1ccc(-c2cc(C(=O)N3CCC(C)CC3)c3ccccc3n2)cc1", "activity change, negative = inhibition": "inactive: 16.2%"}
{"smiles": "CC(=O)c1ccc(N2CCN(C(=O)c3cc(-c4cccnc4)nc4ccc(Br)cc34)CC2)cc1", "Potency": "inconclusive: 35.5 µM [inhibitor, single point]"}
{"smiles": "CCc1ccc(NC2=CC(=O)CC(C)(C)C2)cc1", "activity change, negative = inhibition": "inactive: 1.17%"}
{"smiles": "COc1ccc2oc(C(=O)OC(C)C(=O)N3CCC(C)CC3)c(C)c2c1", "note": "(configuration not stated)", "activity change, negative = inhibition": "inactive: 6.65%"}
{"smiles": "NC(=NCCc1c[nH]c2ccccc12)NS(=O)(=O)c1ccc(F)cc1", "Potency": "inconclusive: 0.184 µM [activator, single point]"}
{"smiles": "COCC1CCCN(C(=O)c2cc(COc3ccc4ncccc4c3)on2)C1", "note": "(configuration not stated)", "Potency": "inconclusive: 15.8 µM [inhibitor, partial curve, poor fit]"}
{"smiles": "CCC(C)n1c(SCC(=O)Nc2ccccc2C(F)(F)F)nc2ccsc2c1=O", "note": "(configuration not stated)", "Potency": "inconclusive: 29.1 µM [inhibitor, single point]"}
{"smiles": "CC(C)C(NCC(=O)Nc1ccccc1C(=O)NC1CC1)c1ccccc1", "note": "(configuration not stated)", "activity change, negative = inhibition": "inactive: -0.741% [at 46.1 µM]"}
{"smiles": "CCn1nc(C(=O)NNS(=O)(=O)c2ccc(C)cc2)c2ccccc2c1=O", "Potency": "inconclusive: 2.82 µM [inhibitor, partial curve, poor fit]"}
{"smiles": "COc1ccc(NC(=O)CN2C(=O)C(c3ccccc3)=NC23CCCCCC3)cc1OC", "activity change, negative = inhibition": "inactive: -21.6%"}
{"smiles": "COC(=O)c1c(NC(=O)c2ccccc2[N+](=O)[O-])sc2c1CC(C)(C)NC2(C)C", "Potency": "inconclusive: 0.651 µM [activator, single point]"}
{"smiles": "CC(=O)N1c2ccc(S(=O)(=O)N3CCC(C(=O)NC4CCCCC4)CC3)cc2CC1C", "note": "(configuration not stated)", "Potency": "inconclusive: 35.5 µM [activator, single point]"}
{"smiles": "Cc1cc(Br)ccc1Nc1nc(N)nc(N)c1N=O", "Potency": "inconclusive: 20 µM [inhibitor, single point]"}
{"smiles": "O=C1c2oc3ccc(Cl)cc3c(=O)c2C(c2cccc(Br)c2)N1CCO", "note": "(configuration not stated)", "activity change, negative = inhibition": "inactive: -13.4%"}
{"smiles": "CC(=O)Nc1ccc(S(=O)(=O)n2nc(C)cc2C)cc1", "Potency": "inconclusive: 5.62 µM [activator, single point]"}
{"smiles": "CCOc1ccccc1N1CCN(C(=O)c2cc3c(C)cc(C)cc3[nH]2)CC1", "Potency": "inconclusive: 3.55 µM [inhibitor, partial curve, poor fit]"}
{"smiles": "CC(NC(=O)CSc1nc(=O)cc(N)n1CCc1ccccc1)c1ccccc1", "note": "(configuration not stated)", "Potency": "inconclusive: 6.31 µM [activator, partial curve, poor fit]"}
{"smiles": "CCCOc1ccc(CCc2n[nH]c(=S)n2-c2ccccc2)cc1", "Potency": "inconclusive: 5.62 µM [inhibitor, single point]"}
{"smiles": "CCN(CC)C(=O)c1ccc(COc2ccccc2Cl)cc1", "Potency": "inconclusive: 14.1 µM [inhibitor, partial curve, poor fit]"}
{"smiles": "NC(=O)SCC(=O)Nc1ccc(Cl)c(Cl)c1", "Potency": "inconclusive: 35.5 µM [inhibitor, single point]"}
{"smiles": "Cc1ccc2c(c1)c(C)cc(=O)n2CCC(=O)O", "activity change, negative = inhibition": "inactive: -11.3%"}
{"smiles": "Cc1ccccc1-c1noc(-c2ccccc2OCC(=O)Nc2ccccc2[N+](=O)[O-])n1", "Potency": "inconclusive: 35.5 µM [inhibitor, single point]"}
{"smiles": "CCc1ccc(S(=O)(=O)c2nnn3c2nc(NCc2ccccc2OC)c2cc(Cl)ccc23)cc1", "Potency": "inconclusive: 6.31 µM [inhibitor, single point]"}
{"smiles": "O=C(c1ccc(F)cc1F)N1CCC(c2noc(-c3ccc(S(=O)(=O)N4CCCC4)cc3)n2)CC1", "activity change, negative = inhibition": "inactive: -7.77% [at 46.1 µM]"}
{"smiles": "COc1cc(C2CC(c3cccs3)=NN2C(=O)CCl)ccc1OC(F)F", "note": "(configuration not stated)", "Potency": "inconclusive: 20 µM [inhibitor, partial curve, poor fit]"}
{"smiles": "COc1ccccc1OC(=O)c1cc2ccccc2oc1=O", "Potency": "inconclusive: 10 µM [activator, partial curve, poor fit]"}
{"smiles": "Cc1cc(C)cc(N2C(=O)C3NN=C(C(=O)OCc4ccccc4)C3C2=O)c1", "note": "(configuration not stated)", "Potency": "inconclusive: 16.4 µM [activator, single point]"}
{"smiles": "CCn1c2ccccc2c2cc(NC(=O)COC(=O)c3ccc(O)cc3)ccc21", "Potency": "inconclusive: 2.82 µM [inhibitor, full curve, poor fit]"}
{"smiles": "Cc1ncsc1CCOC(=O)c1ccc([N+](=O)[O-])cc1", "activity change, negative = inhibition": "inactive: -3.15%"}
{"smiles": "O=C(O)CCCCCN1C(=O)CSC1=S", "Potency": "inconclusive: 7.94 µM [inhibitor, partial curve, poor fit]"}
{"smiles": "CC(C)(C)c1ccc(-c2nnc(SCCC#N)n2C2CCCC2)cc1", "Potency": "inconclusive: 35.5 µM [inhibitor, single point]"}
{"smiles": "c1ccc(COc2ccc(Oc3nc(N4CCCCC4)nc(N4CCOCC4)n3)nn2)cc1", "Potency": "inconclusive: 6.51 µM [inhibitor, single point]"}
{"smiles": "Cc1ccc(S(=O)(=O)Cc2ccc(C(=O)O)o2)cc1", "Potency": "inconclusive: 3.55 µM [activator, single point]"}
{"smiles": "COc1ccccc1-c1cc(C(=O)N/N=C/c2ccc(C)o2)c2ccccc2n1", "Potency": "inconclusive: 17.8 µM [inhibitor, single point]"}
{"smiles": "COC(=O)CN1C(=O)COc2ccc(S(=O)(=O)N3CCOCC3)cc21", "Potency": "inconclusive: 4.47 µM [inhibitor, single point]"}
{"smiles": "COc1ccc(CCC(=O)OCc2csc(CC(=O)Nc3ccc(C)cc3)n2)cc1OC", "Potency": "inconclusive: 0.631 µM [inhibitor, single point]"}
{"smiles": "Cc1ccc(NC(=O)Cn2c(-c3nonc3N)nc3ccccc32)cc1Cl", "Potency": "inconclusive: 7.08 µM [inhibitor, full curve, poor fit]"}
{"smiles": "CC1CCCC(NC(=S)Nc2ccc(SC(F)F)cc2)C1C", "note": "(configuration not stated)", "Potency": "inconclusive: 35.5 µM [inhibitor, single point]"}
{"smiles": "N#C/C(=C/c1ccc(Sc2nc3ccccc3[nH]2)o1)c1cccc(F)c1", "activity change, negative = inhibition": "inactive: -20.5%"}
{"smiles": "Clc1ccc(CN2CCC(c3nc4ccc(Cl)cc4[nH]3)CC2)cc1", "Potency": "active: 11.2 µM"}
{"smiles": "CCC(C)(C)c1ccc(OCC(=O)Nc2ccncc2)cc1", "Potency": "inconclusive: 0.891 µM [inhibitor, partial curve]"}
{"smiles": "COc1cc(C2C(C#N)=C(N)Oc3cc(O)ccc32)cc(OC)c1OC", "note": "(configuration not stated)", "Potency": "active: 1.83 µM"}
{"smiles": "C/C(=N\\N(Cc1ccccc1)c1ccccc1)c1ccncc1", "activity change, negative = inhibition": "inactive: -25.2% [at 46.1 µM]"}
{"smiles": "CC(C)(C)NCC(O)COc1ccccc1C(=O)CCc1ccccc1", "note": "(configuration not stated)", "Potency": "active: 10.3 µM"}
{"smiles": "COc1cc2c(cc1NC(=O)c1cccc([N+](=O)[O-])c1)oc1ccccc12", "Potency": "inconclusive: 11.2 µM [inhibitor, partial curve, poor fit]"}
{"smiles": "COc1cc(/C=C2/C(=O)c3cccc([N+](=O)[O-])c3C2=O)c(Br)cc1O", "Potency": "inconclusive: 35.5 µM [inhibitor, single point]"}
